Measured values as given in article PMC10932744.
Results are given in words; binding and its absence hold for the method and conditions named. Binding seen in cells or lysates may run through a third protein. Some entries that bind do so weakly or less than the wild type.

By UniProt entry, the sequences of proteins in these tests, tags left out.
UniProt Q86U44: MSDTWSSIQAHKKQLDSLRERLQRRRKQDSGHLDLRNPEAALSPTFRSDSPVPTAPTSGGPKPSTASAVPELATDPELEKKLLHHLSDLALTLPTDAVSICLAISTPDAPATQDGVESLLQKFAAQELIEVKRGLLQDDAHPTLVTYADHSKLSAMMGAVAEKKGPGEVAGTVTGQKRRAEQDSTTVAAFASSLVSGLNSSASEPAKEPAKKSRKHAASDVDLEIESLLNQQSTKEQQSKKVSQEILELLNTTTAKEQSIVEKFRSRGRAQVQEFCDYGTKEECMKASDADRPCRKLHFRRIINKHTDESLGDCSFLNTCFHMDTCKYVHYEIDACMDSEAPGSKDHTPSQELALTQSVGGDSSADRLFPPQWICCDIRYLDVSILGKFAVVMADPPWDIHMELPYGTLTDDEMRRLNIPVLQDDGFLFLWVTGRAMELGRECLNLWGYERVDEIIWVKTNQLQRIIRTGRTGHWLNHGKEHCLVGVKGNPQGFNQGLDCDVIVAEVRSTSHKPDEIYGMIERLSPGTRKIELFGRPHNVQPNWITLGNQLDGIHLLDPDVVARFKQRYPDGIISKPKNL
UniProt Q14152: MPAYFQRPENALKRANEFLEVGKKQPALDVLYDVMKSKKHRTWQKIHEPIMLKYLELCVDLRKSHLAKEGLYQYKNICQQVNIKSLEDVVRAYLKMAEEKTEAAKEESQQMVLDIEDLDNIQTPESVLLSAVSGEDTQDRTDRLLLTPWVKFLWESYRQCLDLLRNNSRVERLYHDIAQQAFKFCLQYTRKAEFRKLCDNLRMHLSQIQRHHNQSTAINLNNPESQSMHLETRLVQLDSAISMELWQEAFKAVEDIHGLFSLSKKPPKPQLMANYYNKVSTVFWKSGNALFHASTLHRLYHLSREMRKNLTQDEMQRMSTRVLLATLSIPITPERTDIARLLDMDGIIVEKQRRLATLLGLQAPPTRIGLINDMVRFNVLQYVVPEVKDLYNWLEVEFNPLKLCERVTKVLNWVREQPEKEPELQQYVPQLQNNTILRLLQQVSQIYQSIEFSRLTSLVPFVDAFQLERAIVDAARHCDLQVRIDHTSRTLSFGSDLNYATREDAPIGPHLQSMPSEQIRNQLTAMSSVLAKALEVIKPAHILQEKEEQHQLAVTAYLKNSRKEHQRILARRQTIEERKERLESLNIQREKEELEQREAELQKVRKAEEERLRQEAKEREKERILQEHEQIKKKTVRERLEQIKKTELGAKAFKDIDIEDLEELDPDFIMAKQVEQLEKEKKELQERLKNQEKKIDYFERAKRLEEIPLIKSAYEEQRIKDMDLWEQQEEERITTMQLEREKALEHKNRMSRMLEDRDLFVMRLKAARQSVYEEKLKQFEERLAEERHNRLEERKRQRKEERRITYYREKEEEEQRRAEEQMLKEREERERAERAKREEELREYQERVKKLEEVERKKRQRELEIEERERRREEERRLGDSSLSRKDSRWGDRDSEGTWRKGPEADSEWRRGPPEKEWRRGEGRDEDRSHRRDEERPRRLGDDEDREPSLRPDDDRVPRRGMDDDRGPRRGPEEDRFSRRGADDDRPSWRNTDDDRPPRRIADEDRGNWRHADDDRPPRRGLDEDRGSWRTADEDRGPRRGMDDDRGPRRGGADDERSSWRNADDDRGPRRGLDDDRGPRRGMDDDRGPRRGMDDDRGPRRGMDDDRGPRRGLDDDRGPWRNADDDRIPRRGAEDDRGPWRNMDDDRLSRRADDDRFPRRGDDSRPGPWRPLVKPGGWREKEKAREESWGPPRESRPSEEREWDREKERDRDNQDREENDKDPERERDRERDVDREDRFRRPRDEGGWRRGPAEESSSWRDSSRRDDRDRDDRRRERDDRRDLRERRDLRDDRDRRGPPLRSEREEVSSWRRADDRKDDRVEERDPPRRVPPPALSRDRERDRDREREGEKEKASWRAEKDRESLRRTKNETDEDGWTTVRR

How the values were obtained:
[1] = biological target: methyltransferase-like 3 (METTL3) (human (endogenous in hUCMSCs)) (UniProt Q86U44); experiment: co-IP; hUCMSC lysate (RIPA buffer); magnetic beads precoated with anti-EIF3A or anti-METTL3 antibody; eluates blotted with anti-NOP2 (and anti-GAPDH); cells with or without METTL3 adenovirus, osteogenic induction for 7 days
[2] = biological target: eukaryotic translation initiation factor 3 subunit A (EIF3A) (human (endogenous in hUCMSCs)) (UniProt Q14152); experiment: as above

B1: nucleolar protein 2 (NOP2) (protein, UniProt P46087 1-812)
chain: MGRKLDPTKEKRGPGRKARKQKGAETELVRFLPAVSDENSKRLSSRARKRAAKRRLGSVEAPKTNKSPEAKPLPGKLPKGISAGAVQTAGKKGPQSLFNAPRGKKRPAPGSDEEEEEEDSEEDGMVNHGDLWGSEDDADTVDDYGADSNSEDEEEGEALLPIERAARKQKAREAAAGIQWSEEETEDEEEEKEVTPESGPPKVEEADGGLQINVDEEPFVLPPAGEMEQDAQAPDLQRVHKRIQDIVGILRDFGAQREEGRSRSEYLNRLKKDLAIYYSYGDFLLGKLMDLFPLSELVEFLEANEVPRPVTLRTNTLKTRRRDLAQALINRGVNLDPLGKWSKTGLVVYDSSVPIGATPEYLAGHYMLQGASSMLPVMALAPQEHERILDMCCAPGGKTSYMAQLMKNTGVILANDANAERLKSVVGNLHRLGVTNTIISHYDGRQFPKVVGGFDRVLLDAPCSGTGVISKDPAVKTNKDEKDILRCAHLQKELLLSAIDSVNATSKTGGYLVYCTCSITVEENEWVVDYALKKRNVRLVPTGLDFGQEGFTRFRERRFHPSLRSTRRFYPHTHNMDGFFIAKFKKFSNSIPQSQTGNSETATPTNVDLPQVIPKSENSSQPAKKAKGAAKTKQQLQKQQHPKKASFQKLNGISKGADSELSTVPSVTKTQASSSFQDSSQPAGKAEGIREPKVTGKLKQRSPKLQSSKKVAFLRQNAPPKGTDTQTPAVLSPSKTQATLKPKDHHQPLGRAKGVEKQQLPEQPFEKAAFQKQNDTPKGPQPPTVSPIRSSRPPPAKRKKSQSRGNSQLLLS
[1]
  binding: binds
[2]
  binding: binds
